According to PubChem BioAssay AID2073 (Sanford-Burnham Center for Chemical Genomics, 2009):
Among all 290,000 compounds or so, about 570 (0.2%) were called active. The shares of active, inactive and inconclusive entries below differ from those in the screen. Cut-off read from the data, not from the text of the source: active = inhibition mostly above about 51% (no sharp cut-off); inconclusive = no clear call, values can overlap the other calls; inactive = mostly below about 53%.

Sequences of proteins named here, by UniProt entry; tags and fusion partners are left off.
UniProt Q00975, whole entry, looked up: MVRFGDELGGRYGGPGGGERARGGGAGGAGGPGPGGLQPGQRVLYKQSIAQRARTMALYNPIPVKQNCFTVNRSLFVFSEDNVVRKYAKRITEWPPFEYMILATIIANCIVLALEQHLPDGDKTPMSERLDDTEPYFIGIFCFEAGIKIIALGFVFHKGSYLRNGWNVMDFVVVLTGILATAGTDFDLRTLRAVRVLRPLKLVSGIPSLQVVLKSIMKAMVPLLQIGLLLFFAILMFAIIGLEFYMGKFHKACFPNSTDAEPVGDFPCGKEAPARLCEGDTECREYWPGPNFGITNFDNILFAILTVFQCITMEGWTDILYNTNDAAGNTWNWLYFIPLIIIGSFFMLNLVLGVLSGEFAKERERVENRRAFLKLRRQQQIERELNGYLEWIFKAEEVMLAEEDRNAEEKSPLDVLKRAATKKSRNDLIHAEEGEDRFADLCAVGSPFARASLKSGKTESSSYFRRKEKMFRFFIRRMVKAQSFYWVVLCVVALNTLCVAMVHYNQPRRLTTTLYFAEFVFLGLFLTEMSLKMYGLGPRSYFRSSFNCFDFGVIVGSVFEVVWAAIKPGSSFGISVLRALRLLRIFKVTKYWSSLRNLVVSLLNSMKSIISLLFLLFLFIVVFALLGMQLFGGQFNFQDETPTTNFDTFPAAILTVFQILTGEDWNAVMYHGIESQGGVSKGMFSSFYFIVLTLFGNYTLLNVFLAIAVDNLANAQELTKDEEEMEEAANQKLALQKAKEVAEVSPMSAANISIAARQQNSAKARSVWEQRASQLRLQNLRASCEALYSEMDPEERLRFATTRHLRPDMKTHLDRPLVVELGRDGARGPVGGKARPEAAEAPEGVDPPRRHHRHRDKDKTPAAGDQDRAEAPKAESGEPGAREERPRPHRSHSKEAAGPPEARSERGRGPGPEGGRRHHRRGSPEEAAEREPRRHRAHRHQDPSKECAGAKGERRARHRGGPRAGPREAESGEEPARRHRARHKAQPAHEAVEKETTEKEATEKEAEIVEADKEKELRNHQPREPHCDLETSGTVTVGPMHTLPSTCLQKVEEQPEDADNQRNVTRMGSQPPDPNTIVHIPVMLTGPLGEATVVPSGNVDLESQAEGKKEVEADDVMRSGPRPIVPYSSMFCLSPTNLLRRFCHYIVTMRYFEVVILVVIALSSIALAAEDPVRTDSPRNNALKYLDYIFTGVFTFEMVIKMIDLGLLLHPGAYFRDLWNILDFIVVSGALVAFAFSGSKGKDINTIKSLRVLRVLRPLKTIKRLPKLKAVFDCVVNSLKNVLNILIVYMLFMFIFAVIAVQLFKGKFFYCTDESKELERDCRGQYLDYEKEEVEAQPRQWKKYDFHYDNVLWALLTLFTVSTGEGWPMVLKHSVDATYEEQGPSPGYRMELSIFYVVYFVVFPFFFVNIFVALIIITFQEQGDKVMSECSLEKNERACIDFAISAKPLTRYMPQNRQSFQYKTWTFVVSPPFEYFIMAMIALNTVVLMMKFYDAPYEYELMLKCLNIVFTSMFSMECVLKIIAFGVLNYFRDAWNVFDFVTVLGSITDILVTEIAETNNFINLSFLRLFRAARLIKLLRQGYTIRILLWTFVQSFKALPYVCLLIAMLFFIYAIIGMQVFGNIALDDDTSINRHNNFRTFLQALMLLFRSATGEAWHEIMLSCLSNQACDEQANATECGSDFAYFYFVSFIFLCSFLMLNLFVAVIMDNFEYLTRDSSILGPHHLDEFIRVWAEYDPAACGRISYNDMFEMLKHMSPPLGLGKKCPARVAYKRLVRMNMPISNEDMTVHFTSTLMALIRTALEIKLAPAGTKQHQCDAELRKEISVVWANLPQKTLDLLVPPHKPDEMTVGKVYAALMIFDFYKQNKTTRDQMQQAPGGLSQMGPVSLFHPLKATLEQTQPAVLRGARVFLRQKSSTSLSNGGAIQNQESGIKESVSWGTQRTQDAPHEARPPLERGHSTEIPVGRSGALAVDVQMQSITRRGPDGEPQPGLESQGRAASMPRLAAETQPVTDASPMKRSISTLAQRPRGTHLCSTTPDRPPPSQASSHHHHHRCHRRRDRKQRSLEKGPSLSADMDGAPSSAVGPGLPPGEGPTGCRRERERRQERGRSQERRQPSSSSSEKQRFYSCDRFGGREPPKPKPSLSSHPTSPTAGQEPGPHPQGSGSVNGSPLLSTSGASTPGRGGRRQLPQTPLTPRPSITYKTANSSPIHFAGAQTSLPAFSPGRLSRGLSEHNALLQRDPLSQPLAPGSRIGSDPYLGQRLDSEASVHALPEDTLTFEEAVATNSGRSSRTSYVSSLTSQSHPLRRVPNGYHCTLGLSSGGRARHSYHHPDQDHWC

molecular target: Voltage-dependent N-type calcium channel subunit alpha-1B (Homo sapiens) (UniProt Q00975); assay: disruptors of CaV2.2 binding to Mint1 – biochemical, HTRF (AID 2073); settings: HTRF protein-protein interaction, Mint1-CaV2.2; at 20 µM; hits give high values

SMILES | inhibition
COc1cc(C2c3c([nH]c(=O)[nH]c3=O)Nc3ccc4ccccc4c32)cc(OC)c1OC (stereo unspecified) | active: 82.8%
O=C1C2C3C=CC(C3)C2C(=O)N1c1n[nH]c(-c2ccccc2)n1 (stereo unspecified) | inactive: 11%
Cn1cnc2nc3n(c2c1=O)CCC3 | inconclusive: 67.1%
CCCn1c(SCc2nc(-c3cccs3)no2)nnc1-c1ccncc1 | inconclusive: 79.4%
O=C(Nc1ccc2oc(-c3ccccc3Cl)nc2c1)c1ncn[nH]1 | inactive: 28.3%
CCCCN(C)C(=O)CCC(=O)NNc1nc2ccccc2c2nc(C)nn12 | inconclusive: 54.5%
O=C(COc1ccccc1Cl)c1ccc[nH]1 | active: 53.6%
CCN(C(=O)Cn1cnc2c(nc3n2CCCCC3)c1=O)c1cccc(Cl)c1 | inconclusive: 51.7%
COc1ccc(C(C(=O)NCCC(C)C)N(CCCO)C(=O)c2snc(C(N)=O)c2N)cc1OC (stereo unspecified) | inconclusive: 59.5%
CN1/C(=C/C(=O)C2CC2)C(C)(C)c2ccccc21 | inactive: 3.3%
Cc1ccc(-c2cc(C(F)(F)F)n3ncc(C(=O)NCc4ccco4)c3n2)cc1 | inconclusive: 57.6%
COc1ccc(N2CSC3=C(C#N)C(c4ccc(OC)c(OC)c4)CC(=O)N3C2)c(OC)c1 (stereo unspecified) | active: 91.4%
Cc1ccsc1/C=N/NC(=O)CO | inactive: 7.8%
CCCCN1C(=O)c2ccc(C(=O)Nc3cccc(C)c3C)cc2C1=O | inconclusive: 58%
Cc1occc1C(=O)N/N=C/c1ccc2c(c1)OCO2 | inconclusive: 84.6%
CCOC(=O)c1ccc(-n2cncn2)nc1 | inactive: -2.2%
CCc1ccc2oc(=O)cc(CN3CCCCC3)c2c1 | inconclusive: 64.5%
COc1cc(C(CC(=O)Nc2ccc(Cl)cn2)N2Cc3ccccc3C2=O)cc(OC)c1OC (stereo unspecified) | inconclusive: 73.7%
COc1ccc(NC(=S)N(CCCN2CCOCC2)Cc2ccccn2)cc1 | inconclusive: 73.7%
O=C(CC1(c2ccc(Cl)cc2)C2CC3CC(C2)CC1C3)NCCO (stereo unspecified) | inconclusive: 63.2%
COc1ccccc1-n1c([S-])c(C(=O)Nc2ccccc2C(F)(F)F)[n+]2ccc(C(=O)NCCO)cc12 | inconclusive: 63.7%
CCCNC(=O)c1ccc2c(=O)c(O)c(-c3ccc(C)cc3)[nH]c2c1 | inconclusive: 51.8%
Cc1cc(C(=O)NCC(c2cccs2)N2CCOCC2)ccc1[N+](=O)[O-] (stereo unspecified) | inconclusive: 55%

SMILES | inhibition
Nc1ccc(Cc2ccc(N)c(O)c2)cc1O | inconclusive: 80.7%
O=c1[nH]cnc2c1sc1nc3c(c(-c4ccc(Cl)cc4)c12)CCC3 | inconclusive: 51.6%
O=C(N/N=C(\Cc1ncc[nH]1)c1ccccc1)c1ccncc1 | inconclusive: 67.7%
N#Cc1ccsc1NC(=O)CSc1nnnn1-c1ccc(O)cc1 | active: 50.6%
O=S(=O)(c1ccc2nc(N3CCN(c4ccccc4)CC3)ccc2c1)N1CCCCC1 | inconclusive: 51.4%
O=C(/C=C/c1ccc2c(c1)OCO2)NCCSCc1ccc(Cl)cc1 | inconclusive: 72.9%
COc1ccc(NCC(=O)N/N=C2\CCc3ccccc32)cc1 | inconclusive: 69.7%
COc1ccc(NC(=S)Nc2ccccn2)c(OC)c1 | inconclusive: 88.1%
Cc1[nH]n(-c2ccccc2)c(=S)c1C=Nc1ccc([N+](=O)[O-])cc1 | active: 67%
COc1ccc(C(=O)/C=C/C(=O)N(CC(=O)NC2CCCCC2)Cc2ccccc2)c(O)c1 | active: 64.1%
CC(=O)Nc1ccc(OC(F)(F)C(F)F)c(NC(C)=O)c1 | inconclusive: 82.9%
Cc1cc2cc(C#N)c(SCC(=O)Nc3nonc3C)nc2cc1C | inconclusive: 66.9%
CNC(=O)CCn1nc(-c2ccc(C)cc2)c2ccccc2c1=O | inactive: -2.1%
CCOC(=O)C(NC(=O)c1cccc(Cl)c1)(Nc1sc2c(c1C(N)=O)CCC2)C(F)(F)F (stereo unspecified) | inconclusive: 52.8%
CCCNC(=S)N1CCN(c2nc(-c3cccc(OC)c3)cs2)CC1 | inconclusive: 70.5%
O=C(Nc1sc2c(c1C(=O)O)CCCCC2)c1ccccc1F | inconclusive: 60.4%
CC1Cc2cc(/C=C3/SC(=S)N(C)C3=O)ccc2O1 (stereo unspecified) | inconclusive: 60.9%
CN1CCN(CCCNC(=O)c2ccc(/C=C3\Oc4ccccc4N(Cc4ccc(Cl)cc4)C3=O)cc2)CC1 | inconclusive: 61.7%
COc1cc([N+](=O)[O-])ccc1NC(=O)NCc1ccco1 | inconclusive: 60.5%
Cc1cc(C(F)F)nn1CC(=O)NC1C(=O)N2C(C(=O)O)=C(CSc3nnnn3C)CSC12 (stereo unspecified) | inconclusive: 55.5%
COc1ccc(-c2c(C(C)=O)c(C)nc3sc4c(c23)NC(c2ccccc2)NC4=O)cc1 (stereo unspecified) | inconclusive: 62.6%
COc1ccc2[nH]cc(C(=O)CN3CCC(C)CC3)c2c1 | inconclusive: 61.6%
COc1ccccc1N=c1scc(-c2ccc3c(c2)NC(=O)CO3)n1CC1CCCO1 (stereo unspecified) | inconclusive: 64.9%

SMILES | inhibition
Cc1cccc(-c2cc3nc(-c4ccccc4)cc(N4CCC5(CC4)OCCO5)n3n2)c1 | inconclusive: 53.1%
COc1cc(/C=N/Nc2nc3ccccc3[nH]2)ccc1O | inconclusive: 81.6%
CCOC(=O)c1cccc(NC(=O)CC2Oc3ccccc3NC2=O)c1 (stereo unspecified) | inconclusive: 66.1%
O=c1[nH]c(NCCO)nnc1Cc1ccc(Cl)cc1 | inconclusive: 66.5%
COc1ccc(OC)c(CN2CCCC(CO)C2)c1 (stereo unspecified) | inconclusive: 55.5%
C/C=C\C(=O)Nc1cccc(C2=NOC3(C2)C[C@@H](C(N)=O)N(C(=O)COc2ccc(Cl)cc2)C3)c1 (stereo partly specified) | inconclusive: 79%
Cc1cc(-c2cc(C(=O)O)c3ccccc3n2)c(C)s1 | inactive: 9.2%
CCOc1cccc(NC(=O)c2cccc(F)c2)c1 | inactive: 2.7%
C[C@](N)(Cc1ccc(O)c(O)c1)C(=O)O | inconclusive: 58%
Nc1cccc2c(=O)c3ccccc3[nH]c12 | inactive: 41.4%
CC(=O)Nc1ccc(Nc2nc(-c3cc4ccccc4oc3=O)cs2)cc1 | inconclusive: 58.5%
C=CCn1c(SCC(=O)NC2CCS(=O)(=O)C2)nnc1-c1cc2c(s1)CCC(CC)C2 (stereo unspecified) | inconclusive: 80.5%
COc1cc(C2CC(=O)N3CN(Cc4ccccc4)CSC3=C2C#N)ccc1OCc1ccccc1 (stereo unspecified) | inactive: 82.7%
Clc1ccc(N=c2ssnc2Cl)cc1 | inactive: -17.4%
O=C1CCCN1c1cc(Cl)ccc1Cl | inactive: -4.5%
CCOC(=O)c1c(O)cc(C)cc1Nc1ccccc1 | inactive: 14.3%
Fc1ccccc1Nc1nc2c(s1)CCc1ccccc1-2 | active: 94.8%
Cn1c(=O)c(C(=O)COC(=O)c2cc(-c3ccccc3)nc3ccccc23)c(N)n(Cc2ccccc2)c1=O | inactive: 26.2%
CC(C)CCn1c(O)c(N=Nc2ccccn2)c2ccccc21 | inconclusive: 69%
COC(=O)c1[nH]c2c(c1C)C(=O)CC(c1ccc(OC)c(OC)c1)C2 (stereo unspecified) | inconclusive: 50%
CCOc1ccccc1NC(=O)C(=O)N/N=C/c1cc(Br)ccc1O | inconclusive: 50.4%
C=CCOc1ccccc1/C=c1\sc2nc(=O)c(C)nn2c1=O | inconclusive: 55.4%
CC(=O)c1sc2nc(CSc3nncn3C)[nH]c(=O)c2c1C | inactive: 22.1%

Taken from above.
For inhibition, COc1cc(/C=N/Nc2nc3ccccc3[nH]2)ccc1O reads inconclusive: 81.6%
For inhibition, COc1cc(C2CC(=O)N3CN(Cc4ccccc4)CSC3=C2C#N)ccc1OCc1ccccc1 (stereo unspecified) reads inactive: 82.7%
For inhibition, Clc1ccc(N=c2ssnc2Cl)cc1 reads inactive: -17.4%
For inhibition, CCOc1ccccc1NC(=O)C(=O)N/N=C/c1cc(Br)ccc1O reads inconclusive: 50.4%

Later entries.

SMILES | inhibition
COc1ccc(C(=O)On2c(-c3ccc(Br)cc3)nc3ccccc3c2=O)cc1 | inconclusive: 57%
N=c1c(S(=O)(=O)c2ccc(Cl)cc2)cc2c(=O)n3ccccc3nc2n1Cc1ccco1 | inconclusive: 62.3%
Cc1oc(-c2cccs2)nc1CS(=O)CC(=O)NCCc1ccccc1 (stereo unspecified) | inconclusive: 51.7%
CC(NC(=O)c1cc(Br)ccc1Br)c1ccccc1 (stereo unspecified) | inactive: 15.9%
O=C(Nc1ccon1)c1ccc(Cl)s1 | inconclusive: 51.3%
CCOC(=O)/C(C#N)=C/c1ccc(-c2ccsc2C(=O)OC)o1 | inconclusive: 55.9%
O=C1CCC(=O)N1c1ccc(S(=O)(=O)Nc2cccc([N+](=O)[O-])c2)cc1 | inconclusive: 71.7%
COc1cc(OC)c(C2CC(=O)N3CN(c4ccc(C)cc4)CSC3=C2C#N)cc1OC (stereo unspecified) | inactive: 65.7%
O=C(NNc1cccc(Cl)n1)c1ccc(Cl)nc1 | inconclusive: 62.3%
COc1ccc(C(=O)O)cc1Nc1cc(C)nc2ncnn12 | inconclusive: 87.3%
O=C(CN1C(=O)C2CCCN2c2ncc(Cl)cc21)NCc1ccc2c(c1)OCO2 (stereo unspecified) | inconclusive: 60.6%
CCOc1ccccc1Oc1coc2cc(O)ccc2c1=O | inconclusive: 59.3%
CC(C)Oc1cccc(C(=O)NC(=S)N2CCN(c3ccc(C(F)(F)F)cc3[N+](=O)[O-])CC2)c1 | inconclusive: 90.3%
CCN(CC)S(=O)(=O)c1ccc(Cl)c(NC(=O)COc2ccc(OC)cc2[N+](=O)[O-])c1 | inconclusive: 62.6%
CCC1(C)Cc2c(sc3nnn(CC(=O)Nc4ccc(Cl)cc4)c(=O)c23)CO1 (stereo unspecified) | inconclusive: 53.1%
Cc1cc2nc(N)sc2cc1[N+](=O)[O-] | inconclusive: 62%
Fc1cccc(Cl)c1CNn1cn[nH]c1=S | inactive: -3%
COc1ccc(-c2cc3ccc(OC(C)C(=O)O)cc3oc2=O)cc1 (stereo unspecified) | inconclusive: 66.6%
Cn1c(CNC(=O)CNC(=O)c2ccc(F)cc2)cc(=O)n(C)c1=O | inconclusive: 58.1%
Nc1c(C(=O)N2CCOCC2)oc2ccccc12 | inconclusive: 57.1%
Cc1ccc2nc(N3CCN(S(=O)(=O)c4ccc(C)c(Cl)c4)CC3)c(C#N)cc2c1 | inconclusive: 61.3%
CN(C)c1ccncc1C(=O)Nc1ccc(F)cc1F | inconclusive: 62.6%
